This note sets out measurements from paper PMC5715071.

Amino acid sequences for entries named in this document (tags omitted). A change or cut given only in a name is not applied to a line headed by its entry.
UniProt O88900: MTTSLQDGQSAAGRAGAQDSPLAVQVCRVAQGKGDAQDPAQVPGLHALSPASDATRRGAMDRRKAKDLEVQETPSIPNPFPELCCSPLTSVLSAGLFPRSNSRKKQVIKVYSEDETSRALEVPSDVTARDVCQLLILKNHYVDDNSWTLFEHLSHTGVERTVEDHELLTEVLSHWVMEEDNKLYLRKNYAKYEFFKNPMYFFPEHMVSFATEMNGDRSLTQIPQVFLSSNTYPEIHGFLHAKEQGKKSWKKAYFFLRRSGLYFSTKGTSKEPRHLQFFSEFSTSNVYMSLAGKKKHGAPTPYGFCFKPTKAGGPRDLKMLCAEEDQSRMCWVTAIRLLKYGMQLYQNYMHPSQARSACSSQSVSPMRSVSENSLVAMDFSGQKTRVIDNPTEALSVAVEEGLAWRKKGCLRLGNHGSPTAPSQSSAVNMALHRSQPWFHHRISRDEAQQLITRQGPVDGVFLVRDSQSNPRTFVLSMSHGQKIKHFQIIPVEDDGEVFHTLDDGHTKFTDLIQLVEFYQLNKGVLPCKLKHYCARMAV
UniProt P06213: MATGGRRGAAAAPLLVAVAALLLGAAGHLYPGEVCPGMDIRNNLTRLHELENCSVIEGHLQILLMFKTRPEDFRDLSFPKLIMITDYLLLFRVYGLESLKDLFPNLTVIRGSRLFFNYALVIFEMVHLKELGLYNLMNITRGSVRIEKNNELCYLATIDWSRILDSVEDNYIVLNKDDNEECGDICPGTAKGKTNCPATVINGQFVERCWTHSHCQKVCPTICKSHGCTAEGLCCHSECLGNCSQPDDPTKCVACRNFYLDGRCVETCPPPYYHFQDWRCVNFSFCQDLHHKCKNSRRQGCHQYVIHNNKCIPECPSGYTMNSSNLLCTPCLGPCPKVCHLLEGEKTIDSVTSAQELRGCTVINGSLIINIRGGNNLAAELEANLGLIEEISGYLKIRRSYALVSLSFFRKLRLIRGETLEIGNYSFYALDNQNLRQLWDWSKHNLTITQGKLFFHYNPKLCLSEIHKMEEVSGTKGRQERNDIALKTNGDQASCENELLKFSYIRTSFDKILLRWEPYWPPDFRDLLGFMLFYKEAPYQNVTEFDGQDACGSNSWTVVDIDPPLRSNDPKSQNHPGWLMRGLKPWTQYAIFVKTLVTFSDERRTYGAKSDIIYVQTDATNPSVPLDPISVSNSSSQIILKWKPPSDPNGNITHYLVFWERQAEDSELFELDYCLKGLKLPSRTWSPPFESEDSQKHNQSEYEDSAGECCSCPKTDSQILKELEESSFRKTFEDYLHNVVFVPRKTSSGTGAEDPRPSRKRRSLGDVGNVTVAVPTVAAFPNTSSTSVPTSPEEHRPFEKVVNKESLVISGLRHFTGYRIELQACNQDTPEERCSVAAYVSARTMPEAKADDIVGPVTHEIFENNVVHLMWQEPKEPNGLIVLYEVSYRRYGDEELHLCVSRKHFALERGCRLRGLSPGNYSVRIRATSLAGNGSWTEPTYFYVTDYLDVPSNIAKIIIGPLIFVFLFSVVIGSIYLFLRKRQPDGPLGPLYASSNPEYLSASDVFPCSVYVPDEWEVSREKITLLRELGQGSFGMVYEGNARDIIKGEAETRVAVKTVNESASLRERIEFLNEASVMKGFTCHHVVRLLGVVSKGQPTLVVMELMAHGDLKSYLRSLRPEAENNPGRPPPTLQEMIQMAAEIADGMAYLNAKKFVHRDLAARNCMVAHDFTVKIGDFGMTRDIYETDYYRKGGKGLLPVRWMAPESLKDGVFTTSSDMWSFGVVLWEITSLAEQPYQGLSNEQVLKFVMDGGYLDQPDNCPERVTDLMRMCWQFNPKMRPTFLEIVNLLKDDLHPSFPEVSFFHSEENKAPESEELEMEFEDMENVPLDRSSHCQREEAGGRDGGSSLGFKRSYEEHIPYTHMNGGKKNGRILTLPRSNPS

The target of the test is Growth factor receptor-bound protein 14 fused to YFP (Grb14-YFP) (UniProt O88900). The test is described as follows: co-IP; HEK-293T cells co-transfected with IRTK48-Rluc and Grb14-YFP or YFP-Grb10, with or without 50 µM C8 for 4 h; lysate with anti-GFP antibody and protein G-agarose 2 h 30 min at 4 °C; blot with anti-Luc.

These are yes or no findings as the source states them, for the method shown. Binding seen in cells or lysates may run through a third protein. Binding calls can cover weak binding; strength is not graded here.

With “Tyrosine kinase domain of the insulin receptor fused to Renilla luciferase (IRTK48-Rluc) (from UniProt P06213) (domain or fragment)”, the binding result is given as “binds”.
